About 210 (0.4%) of roughly 52,000 sequences were called active.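 How the source made its calls: active means gene whose silencing raises cell survival under the drug, median off-target-corrected z-score across its silencing RNAs 2 or more; inactive means the rest.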 The list shows a part of the results.

A short description of the assay: Resistance to Poly (ADP-Ribose) Polymerase inhibitor: Gene Identification via Genome-wide siRNA Screen. To be noted: mouse BRCA2 R2336H ES cells, olaparib, CellTiter-Glo viability; stronger effect = higher value. The method in brief: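 Mouse BRCA2 R2336H ES cells were reverse-transfected with siRNA (20 nM final), treated at 48 h with 500 nM olaparib, and read by CellTiter-Glo after 72 h. Scores: MAD-based z per siRNA, median per gene, seed off-target correction.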
As to GGCCAGACCAAAAUCAAGCTT against Shox2, the z-score was inactive: 0.175.

With “GCACUGCCGGGAGUACUUATT against 5330438D12Rik”, the z-score was inactive: -0.0697.

Consider GGUUCACCUGACCUGUUAGTT against Itgad, for which the z-score was inactive: -1.73.

As to GGGAGCAAGAGCUCUUUUCTT against BC003332, the z-score is inactive: -0.401.

In the case of GGAGGUGUGAUCCUAGGCUTT against Slc11a1, the z-score is inactive: 0.886.

For the sequence GGAUGGUACUUUUUUGGUCTT against Clnk, the z-score is inactive: -0.196.

Consider “CCCGGGAUACCACUUAUGUTT against 2700083B06Rik”, for which the z-score was inactive: -0.718.

For GGGAUUGUCAUAGUAACAUTT against Phyhip, the z-score is inactive: -0.0103.

As for “GGGAUUACCAAAAAGGCAUTT against 2810413I22Rik”, the z-score is inactive: -0.671.

Consider CCCAGUAUCAGACUAUCAUTT against Inpp4a, for which the z-score is inactive: -0.0277.

In the case of GGUUUAUCUAUCCAGUUUUTT against Pigb, the z-score was inactive: 1.55.

“GGAUCCACAACUCCAGCUUTT against 3300002I08Rik”: the z-score was inactive: -1.35.

With GGGAUUUGAGUUCUGGAGCTT against Fbxo44, the z-score was inactive: 1.65.

Turning to GCUGGGAGUAAAAUUGACUTT against Cenpj, the z-score was inactive: -0.21.

As for GGAAUCAUAUAGACAGGUCTT against Smurf2, the z-score is inactive: 0.59.

CCCUGGGACUUUCCUAGUGTT against Glt8d2: the z-score is inactive: 0.565.

In the case of GGCUGCAUUUAAUGUUUUATT against Siat7c, the z-score was inactive: -1.15.

In the case of GGGUGACCUAAAGAAUUAATT against Csda, the z-score was inactive: 0.665.

As for GGGAAAAUAACGUGACUGATT against Olfr1270, the z-score is inactive: -1.92.

For the sequence GGUGUCCAAGAUAAUUUGUTT against Gusb, the z-score was inactive: -0.324.

For the sequence GGCACUAAUGGAGAGACUGTT against Nr6a1, the z-score is inactive: -2.8.

As for “GCAUUGGUAACCAAAUCAUTT against 2610318G18Rik”, the z-score is inactive: 0.233.

On to GGCAUUGGUGAAUCAUAUGTT against Olfr51, for which the z-score is inactive: 0.117.

For GGACAAACUGGUCAUCGGGTT against Mrps28, the z-score was inactive: -0.864.

For GCAAUUGCGUAUCGUAAAUTT against Epha4, the z-score was inactive: 0.0823.

GGAGUCUUUCAUUGAAGAATT against Snx12: the z-score is inactive: 0.224.

Turning to GGUAGACAAGAUCAUCGGATT against Dsc3, the z-score is inactive: -0.183.

Consider GGUUAUUUGGAAGUGCUACTT against Esx1, for which the z-score was inactive: -0.558.

Take “GCCUCAAGUUGAUAAGGAUTT against 4922504M18Rik”: the z-score was inactive: 0.956.

Regarding GGUUAGUAUGUAGCUCCCATT against Olfr982, the z-score was inactive: 0.662.

As to GCAAAUAUUACCUGAAAGUTT against Hkr3, the z-score was inactive: -0.853.

On to GGUGACAGAUUCUUUGAGGTT against BC019943, for which the z-score was inactive: -0.362.

Regarding CCUGCUCUAUGGCAGAACGTT against Nkx2-4, the z-score was inactive: -1.49.

For “GCAUAUGGAUAAGAUUGUUTT against C920006C10Rik”, the z-score was inactive: -2.37.

Consider GGUGUAAUUGCCUUGAAGGTT against Il17e, for which the z-score was inactive: 1.28.

Turning to “CGCUGCUUUUCCUAGCAGATT against D730049H07Rik”, the z-score was inactive: 1.01.

Consider GGCCAUUAACUUAAGUUUGTT against Tcte1l, for which the z-score was inactive: 0.0794.

Regarding GCAGACCUAACUAAGCUUUTT against V2r15, the z-score was inactive: -0.261.

Turning to GAGAUAAGAUGGGAAAAAATT against Ssbp2, the z-score is inactive: -0.46.

Consider GGUAUAUGCGGAUCCUGAUTT against Limk2, for which the z-score was inactive: -1.57.

“GCCUAAGAAAUUAGUGAAUTT against 3110032G18Rik”: the z-score is inactive: -1.42.

As to GGAAUAAUGAGGUUAUUGATT against Olfr695, the z-score was inactive: 0.59.

GGAAAGCUUUCUUCACCUGTT against Olfr206: the z-score was inactive: 1.36.

For the sequence GGAACAAAGACUUCAAAGATT against Olfr323, the z-score is inactive: -0.934.

With GGCGAUGUAAUGGAUGUUATT against Nck1, the z-score was inactive: 0.914.

Turning to CCUGAUAAGUAUGAGUCCATT against Mag, the z-score is inactive: -0.986.

On to “GGCUGGAUACUCAGUGCUATT against 1700095H12”, for which the z-score is inactive: -0.312.

Take “GGCAGUUAUCUCCUAAUGCTT against 6720457D02Rik”: the z-score is inactive: -0.203.

GCACUCACCAGUGAGUCAUTT against Cldn6: the z-score is inactive: 1.16.

On to GGCUGUGGAAAUGUUUAUUTT against Cirbp, for which the z-score is inactive: 0.67.

For the sequence GGGUUGAUUAGUGGAGUGATT against H2-Bl, the z-score was inactive: 1.44.

Take GCAACUUGACCAGGAAUAUTT against Ddx52: the z-score is inactive: -1.45.

With “GGAGCUUGGGUUUAAGAUATT against C130052G03Rik”, the z-score is inactive: 1.04.

As for “GCAGAACCGCCAACCAACATT against 5930405J04Rik”, the z-score was inactive: -0.682.

On to “GGUCUUGUGCAUAAAACAGTT against 1810009K13Rik”, for which the z-score was inactive: 0.316.

With “GGUGAUCUGUAGGAACACATT against 9530053A07Rik”, the z-score was inactive: -0.892.

For the sequence “GGUGAAUCUAUUUACCUGCTT against 4921509E07Rik”, the z-score is inactive: -0.438.

Consider GGCUAUGGCUGAUAAGCAUTT against BC048502, for which the z-score is inactive: 0.543.

Take GGCCUCAUCAUGUGUUCAATT against App: the z-score is inactive: -0.226.

Consider GGCAUACCCACAACUGAUGTT against Aarsl, for which the z-score is inactive: -0.766.

Consider GUUGCCUAUCAUUUGUAGATT against Olfr1052, for which the z-score was inactive: -0.485.

As for GGCCAUAUCGUUCACUCACTT against Slc18a3, the z-score was inactive: 0.112.

Regarding GGAAAAGAAAUGAUGGAGUTT against Dnajc9, the z-score is inactive: 0.355.

With GGUGGUGAUAUUUAUUGUGTT against Olfr1, the z-score was inactive: 1.79.

In the case of GUGAAUGUGCCAUUUACUUTT against BC017612, the z-score was inactive: 1.46.

GGAGGAAGAAUAUGGAAAATT against Ptprz1: the z-score was inactive: 0.652.

The values above are taken from PubChem BioAssay AID1347423 (Functional Genomics Laboratory (NCATS/FGL), 2020).
